Reference: US12006373B1 (Board of Trustees of the University of Alabama, for and on …, priority 2020, dated 2024)

Assay: peptide made by a vendor (Fmoc solid-phase peptide synthesis)
Conditions: whole synthesis

WSLGYTGGGGS-PEG6-K-Biotin
purity (crude or final not stated): >98% purity
